Measured values published in US20240409586A1, “CYCLIC POLYPEPTIDE CARRIER FOR EFFICIENT DELIVERY OF NUCLEIC ACID, AND VARIANTS THEREOF” (SUZHOU HEALIRNA BIOTECHNOLOGY CO., LTD., priority 2022, published 2024).
Some entries share one result that the patent states for a list of compounds. Ends that are not written are not given here.

These sequences were tested on siRNA (assay: Agarose gel electrophoresis of cyclic peptide/siRNA formulations (encapsulation)). Details: mass ratio of 4:1 of cyclic peptide/siRNA.
Format: physicochemical
Method: a. Weigh out 0.5 g of agarose powder and pour it into a conical flask, then add 50 mL of 1×TAE electrophoresis buffer into the flask. Dissolve it completely under heating conditions.
b. After cooling to 65° C., add 5 μL of ethidium bromide, swiftly pour into the gel casting tray, insert the comb, and let it stand at room temperature for 0.5-1 hour until the gel solidifies.
c. Next, remove the comb, pour 1×TAE electrophoresis buffer into the well to submerge the gel.
d. Prepare nine formulations of cyclic peptides with siRNA, using samples 1-9 at mass ratios of 1-4 of sample/siRNA. Mix 2 μL of 6× loading dye with 10 μL of samples, load 10 μL into the wells, and concurrently load 10 μL of DNA Marker and bare siRNA into the wells as controls.
e. Subsequently, run the electrophoresis at […] for 45 minutes, turn off the power supply, remove the gel, and observe and record the electrophoresis image with a UV gel imaging system.

Encapsulation of siRNA (agarose gel electrophoresis), adequately encapsulate siRNA:
AALAALAALCKKKKKCLAALAALAA (cysteine pairing not given here) [Sample 1]
KKMLKKMLCQKKKKKQCLMKKLMKK (cysteine pairing not given here) [Sample 2]
KQVLKQVLCQKKKQKKKQKKKQKKKKKQCLVQKLVQK (cysteine pairing not given here) [Sample 6]
KKLKKLCKKKKKKKKKKKKKKCLKKLKK (cysteine pairing not given here) [Sample 3]
